According to PubChem BioAssay AID485314 (National Center for Advancing Translational Sciences (NCATS), 2010):
The campaign covered roughly 340,000 compounds. About 4,500 (1.3%) were called active. This list was built around the results that the source calls inconclusive (neither active nor inactive); the mix of calls is not that of the screen. Calls come from the whole dose curve; as a rule, active = well fitted inhibition curve with a large enough effect; inconclusive = small, poorly fitted or top-dose-only effect, or another doubt; inactive = no such curve, though single readings can be large or run the other way. Where the call is inconclusive, the potency comes from a doubtful curve fit.

The compounds below were run against DNA polymerase beta (Homo sapiens) (UniProt P06746) (assay: qHTS Assay for Inhibitors of DNA Polymerase Beta). Settings: Pol beta primer extension/strand displacement, fluorescence kinetic; activity change, negative = inhibition: at 114 µM (top of the series).
How it was run: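 Kinetic readout of DNA synthesis with strand displacement by Pol beta. Compound and 10 nM enzyme sit 15 min at room temperature; 50 nM substrate starts the reaction, read immediately and at 10 min.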
% is set by controls: 0 for no effect and ±100 for the full control effect; potency is the fitted concentration of half-maximal effect.

SMILES	Potency	activity change, negative = inhibition
Cc1[nH][nH]c(=O)c1C(c1ccc(-c2ccc(Cl)cc2)o1)c1c(C)[nH][nH]c1=O	inconclusive: 70.8 µM [inhibitor, single point]	–
CCOC(=O)c1c(C)[nH]c(C)c1C(=O)COc1ccc(NC(=O)c2ccco2)cc1	inconclusive: 17.8 µM [inhibitor, full curve, poor fit]	–
COCCNC(=O)CN(C(=O)CCC(=O)Nc1ccccn1)c1ccccc1OC	inconclusive: 17.8 µM [inhibitor, single point]	–
O=C(CSc1ncnc2sc3c(c12)CCCC3)c1ccco1	inconclusive: 39.8 µM [inhibitor, single point]	–
Cn1c(C(=O)NCc2ccc3c(c2)OCO3)cc2sccc21	inconclusive: 56.2 µM [inhibitor, partial curve, poor fit]	–
Cc1ccc2cc(NC(=O)c3cccc(F)c3)ccc2n1	inconclusive: 0.316 µM [inhibitor, full curve]	–
Cc1cccc(C(=O)OCC(=O)Nc2sc3c(c2C#N)CCC3)c1	inconclusive: 0.141 µM [inhibitor, full curve, poor fit]	–
O=C(Nc1sc2c(c1C(=O)NCc1ccccc1)CCCC2)c1cc(=O)c2cc(Cl)ccc2o1	–	inactive: -1.68%
O=C(Nc1nc2nc(-c3ccccc3)cc(=O)n2[nH]1)c1ccc(F)cc1	–	inactive: -1.63%
O=C(NCCCN=C1NS(=O)(=O)c2ccccc21)c1ccc(S(=O)(=O)N2CCOCC2)cc1	inconclusive: 89.1 µM [inhibitor, single point]	–
O=C(Cc1cccs1)Nc1nnc(SCc2ccc(F)cc2)s1	–	inactive: -18.1%
O=C(Cn1c(=O)n(CC2CCCO2)c(=O)c2ccccc21)c1ccc(Cl)c(Cl)c1 (configuration not stated)	inconclusive: 8.91 µM [inhibitor, full curve]	–
CC(C)n1c(=S)[nH]c2c1c(=O)[nH]c(=O)n2C	–	inactive: 20.6%
CCC(=O)Nc1nonc1-c1nc2ccccc2n1N(C(=O)CC)C(=O)CC	inconclusive: 22.4 µM [inhibitor, full curve]	–
CCOc1ccccc1NC(=O)CSc1nnnn1-c1ccccc1	inconclusive: 89.1 µM [inhibitor, single point]	–
COc1cccc(-n2c(=O)c3sccc3n(CC(=O)NC3CCCC3)c2=O)c1	inconclusive: 89.1 µM [inhibitor, single point]	–
O=C1C(c2ccc(F)cc2)N(CCc2ccccc2)C(=O)CN1C1CCCCC1 (configuration not stated)	–	inactive: 11.3%
C/C(=N/NS(=O)(=O)c1ccc(C)cc1)c1c[nH]c2ccccc12	inconclusive: 25.1 µM [inhibitor, single point]	–
CCCc1cc(C(=O)N2CCN(C(c3ccccc3)c3ccccc3)CC2)no1	–	inactive: -19.3%
CCc1ccccc1NS(=O)(=O)c1ccc2[nH]cc(C(=O)NCc3ccco3)c(=O)c2c1	–	inactive: 41.9%
CCC(=O)c1ccc(N2CCN(C(=O)Cc3ccccc3)CC2)c(F)c1	inconclusive: 100 µM [inhibitor, single point]	–
Cc1nc2sc(C(=O)OCC(=O)N3c4ccccc4CC3C)c(C)c2c(=O)[nH]1 (configuration not stated)	inconclusive: 4.47 µM [inhibitor, single point]	–
N#Cc1c(NC(=O)/C=C/C(=O)O)sc2c1CCN(Cc1ccccc1)C2	active: 31.6 µM	–

An excerpt of these results, in markdown.

| SMILES | Potency | activity change, negative = inhibition |
| --- | --- | --- |
| CCOC(=O)c1c(C)[nH]c(C)c1C(=O)COc1ccc(NC(=O)c2ccco2)cc1 | inconclusive: 17.8 µM [inhibitor, full curve, poor fit] | – |
| O=C(CSc1ncnc2sc3c(c12)CCCC3)c1ccco1 | inconclusive: 39.8 µM [inhibitor, single point] | – |
| Cc1ccc2cc(NC(=O)c3cccc(F)c3)ccc2n1 | inconclusive: 0.316 µM [inhibitor, full curve] | – |
| Cc1cccc(C(=O)OCC(=O)Nc2sc3c(c2C#N)CCC3)c1 | inconclusive: 0.141 µM [inhibitor, full curve, poor fit] | – |
| O=C(Nc1sc2c(c1C(=O)NCc1ccccc1)CCCC2)c1cc(=O)c2cc(Cl)ccc2o1 | – | inactive: -1.68% |
| O=C(NCCCN=C1NS(=O)(=O)c2ccccc21)c1ccc(S(=O)(=O)N2CCOCC2)cc1 | inconclusive: 89.1 µM [inhibitor, single point] | – |
| O=C(Cc1cccs1)Nc1nnc(SCc2ccc(F)cc2)s1 | – | inactive: -18.1% |
| O=C(Cn1c(=O)n(CC2CCCO2)c(=O)c2ccccc21)c1ccc(Cl)c(Cl)c1 (configuration not stated) | inconclusive: 8.91 µM [inhibitor, full curve] | – |
| CC(C)n1c(=S)[nH]c2c1c(=O)[nH]c(=O)n2C | – | inactive: 20.6% |
| CCOc1ccccc1NC(=O)CSc1nnnn1-c1ccccc1 | inconclusive: 89.1 µM [inhibitor, single point] | – |
| COc1cccc(-n2c(=O)c3sccc3n(CC(=O)NC3CCCC3)c2=O)c1 | inconclusive: 89.1 µM [inhibitor, single point] | – |
| O=C1C(c2ccc(F)cc2)N(CCc2ccccc2)C(=O)CN1C1CCCCC1 (configuration not stated) | – | inactive: 11.3% |
| C/C(=N/NS(=O)(=O)c1ccc(C)cc1)c1c[nH]c2ccccc12 | inconclusive: 25.1 µM [inhibitor, single point] | – |
| CCCc1cc(C(=O)N2CCN(C(c3ccccc3)c3ccccc3)CC2)no1 | – | inactive: -19.3% |
| CCc1ccccc1NS(=O)(=O)c1ccc2[nH]cc(C(=O)NCc3ccco3)c(=O)c2c1 | – | inactive: 41.9% |
| Cc1nc2sc(C(=O)OCC(=O)N3c4ccccc4CC3C)c(C)c2c(=O)[nH]1 (configuration not stated) | inconclusive: 4.47 µM [inhibitor, single point] | – |

(next part)

SMILES	Potency	activity change, negative = inhibition
CC(=O)OCC[n+]1c(C)n(-c2ccccc2)c2ccc(Cl)cc21	inconclusive: 89.1 µM [inhibitor, single point]	–
COc1ccc(C2NC(=O)C(C#N)=C(S)N2c2ccc(C)cc2)cc1OC (configuration not stated)	–	inactive: 1.38%
NS(=O)(=O)c1ccc(Nc2ccccc2)c([N+](=O)[O-])c1	inconclusive: 39.8 µM [inhibitor, partial curve]	–
Cc1nc2nc(C)c(CCC(=O)NCCCN3CCN(c4cccc(Cl)c4)CC3)c(C)n2n1	inactive	–
O=S(=O)(NC1=NCCCCC1)c1ccc2sc(NS(=O)(=O)c3ccc4ccccc4c3)nc2c1	–	inactive: 1.26%
COc1ccc(CNS(=O)(=O)c2ccc3c(c2)C(C)(C)C(=O)N3C)cc1	–	inconclusive: -30.9% [inhibitor]
Cc1cc(NC(=S)N(Cc2ccc(Br)cc2)Cc2ccc(C(=O)O)cc2)ccc1Cl	inconclusive: 89.1 µM [inhibitor, single point]	–
COC(=O)c1ccc(Cn2nc(-c3ccc(C)c(C)c3)ccc2=O)cc1	inconclusive: 31.6 µM [inhibitor, full curve]	–
C#CCn1cc(/C=N/NC(=O)COc2cccc3cccnc23)c2ccccc21	inconclusive: 35.5 µM [inhibitor, partial curve]	–
O=C(Nc1ccc(C(F)(F)F)cc1)C1CC(=O)N(c2ccc3c(c2)OCCO3)C1 (configuration not stated)	inconclusive: 31.6 µM [inhibitor, full curve, poor fit]	–
O=C(OCC(=O)N1CCOCC1)c1ccc(Br)cc1	inconclusive: 100 µM [inhibitor, single point]	–
CCOC(=O)C1CCN(C(=O)CSc2c3c(nc4ccc(Cl)cc24)CCCC3)CC1	–	inactive: -25.2%
O=C(N/N=C/c1ccccc1O)c1cccc(C(F)(F)F)c1	inconclusive: 39.8 µM [inhibitor, partial curve]	–
Nc1ccc(-c2nc3cc(N)ccc3s2)cc1	inconclusive: 17.8 µM [inhibitor, partial curve, poor fit]	–
Cc1ccc(CNC(=O)c2ccc(-c3nc(CN4CCc5ccccc54)c(C)o3)cc2)cc1	inconclusive: 39.8 µM [inhibitor, partial curve]	–
CN1C=CC=C/C1=C1/SC(=S)N(Cc2ccccc2)C1=O	inconclusive: 89.1 µM [inhibitor, single point]	–
Cc1ccc2c(c1)c(N=Nc1cccc(C(=O)O)c1)c(O)n2C	inconclusive: 28.2 µM [inhibitor, full curve, poor fit]	–
CCC(=O)Nc1ccc2nc(SCC(=O)N3CCc4ccccc43)sc2c1	inconclusive: 14.1 µM [inhibitor, full curve]	–
O=C(Nc1cccc(NC(=O)c2ccc(-c3ccc(Br)cc3)o2)c1)c1ccco1	inconclusive: 89.1 µM [inhibitor, single point]	–
CC(=O)N1CCc2c(sc3c2c(=O)n(-c2ccccc2C)c(=O)n3CC(=O)Nc2ccccc2)C1	–	inactive: -14.3%
C[C@@H]1NC(=O)c2cc([N+](=O)[O-])cc(I)c2OCC[C@@H](C(=O)NC(CC(=O)O)C(N)=O)NC(=O)[C@H](CCC(=O)O)NC1=O (some centres not stated)	–	inactive: -6.66%
O=C(Nc1nnc(SCCC2OCCO2)s1)C1CC(=O)N(c2ccc(F)cc2)C1 (configuration not stated)	active: 44.7 µM	–
O=[N+]([O-])c1ccc(N/N=C\c2cccnc2)nc1	–	inactive: 18%

SMILES	Potency	activity change, negative = inhibition
Cc1cc(C(=O)N/N=C/c2cccc3ccccc23)c(C)o1	–	inactive: -0.817%
Cc1sc(N(C(=O)CCc2ccccc2)c2ccc(C(=O)O)cc2)nc1-c1ccccc1	inconclusive: 50.1 µM [inhibitor, partial curve]	–
O=C(Nc1ccc2oc(-c3ccccc3Cl)nc2c1)c1ncn[nH]1	inconclusive: 89.1 µM [inhibitor, single point]	–
O=C(CCn1c(=S)oc2ccccc21)NC1CCCCC1	–	inconclusive: -37% [inhibitor]
O=c1c2oc3ccccc3c2n(Cc2ccccc2Cl)c(=O)n1Cc1ccc2c(c1)OCO2	–	inactive: -13%
COc1ccc(N(C(C)C(=O)N2CCC(Cc3ccccc3)CC2)S(C)(=O)=O)cc1 (configuration not stated)	inconclusive: 89.1 µM [inhibitor, single point]	–
COc1ccc(-c2nn(C)c3sc(C(=O)NCc4ccco4)cc23)cc1OC	active: 12.6 µM	–
C/C=C(/C)C(=O)O[C@@H]1c2cc3c(c(OC)c2-c2c(cc(OC)c(OC)c2OC)[C@@H](OC(C)=O)[C@@H](C)[C@H]1C)OCO3	inconclusive: 0.1 µM [inhibitor, full curve, poor fit]	–
O=C(COc1ccccc1)Nc1cccc(-c2nc3cc4ccccc4cc3[nH]2)c1	inconclusive: 11.2 µM [inhibitor, full curve, poor fit]	–
O=C(COc1ccc(Cl)cc1)OCc1cc(=O)n2nc(C3CCCCC3)sc2n1	–	inactive: -28.3%
CCCc1cc(C(=O)Nc2ccc(C(=O)c3ccc(C)cc3)cc2)n(C)n1	inconclusive: 39.8 µM [inhibitor, single point]	–
COc1ccc(C(=O)Nc2ccc(-c3nnn(CC(=O)N4CCN(C(=O)c5ccco5)CC4)n3)cc2)cc1	inconclusive: 89.1 µM [inhibitor, single point]	–
COC(=O)c1ccccc1NC(=O)NCc1ccc2c(c1)CCN2C(=O)c1ccccc1	–	inactive: -0.938%
COc1ccc(-c2nnc3ccc(SCC(=O)Nc4nc5ccccc5s4)nn23)cc1OC	inconclusive: 89.1 µM [inhibitor, single point]	–
CCN(CC)CCn1nc(C)nc1-c1ccccc1O	inconclusive: 25.1 µM [inhibitor, partial curve, poor fit]	–
COc1ccc(C(C(=O)NC2CCCC2)N(C(=O)c2snc(C(N)=O)c2N)c2cccc(O)c2)cc1 (configuration not stated)	active: 39.8 µM	–
Cc1cc(NC(=O)c2ccc(C#N)cc2)on1	–	inactive: -10.7%
COc1ccc(C(=O)Nc2cc3c(cc2C#N)OCO3)cc1S(=O)(=O)N1CCN(C)CC1	inconclusive: 79.4 µM [inhibitor, single point]	–
COc1ccc(Cc2nc3ccccc3n2CC(=O)N/N=C/c2ccc(C)cc2O)cc1OC	active: 7.94 µM	–
Cc1cccc2cc3c(N)c(C#N)sc3nc12	inconclusive: 39.8 µM [inhibitor, single point]	–
CC(C)C[C@H](NC(=O)c1ccc(OC2CCN(C(=O)C3CC3)CC2)cc1)C(N)=O	inconclusive: 89.1 µM [inhibitor, single point]	–
